Laboratory results: PubChem BioAssay AID1259308 (NCATS, 2017)
The whole screen tested about 59,000 reagents; shown is a random part of them. In the full data, about 1,510 (2.6%) were called active. 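Calls use total luciferase alone and ignore viability, so some active siRNAs may act by altering cell number.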 Not all columns of the deposit are shown.

Screen: 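Knock-downs that increase output of a recombinant reporter protein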 (primary screen)
Cell system: human HEK293 embryonic kidney cells stably expressing firefly luciferase (HEK-CMV-Luc2-Hygro)
Knock-down reagent: single siRNA against human genes, 0.8 pmol siRNA per well
Timing: 72 h
Read-out: 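Reporter luminescence and viable-cell signal on separate replicate plates, given as percent of non-targeting control and median/MAD z-scores, plus per-cell luciferase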
Direction: total luciferase, z-score: higher = more reporter protein produced
Hit rule: 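An siRNA counts as active if its total luciferase robust z-score exceeds 3; genes with two or more such siRNAs out of three were retested with fresh siRNAs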
Meaning of the calls: active = raised luciferase; inactive = no rise

ARHGEF35 (Rho guanine nucleotide exchange factor 35) [SID160733445] scored total luciferase, z-score -0.877; inactive.
Against ARHGEF35 (Rho guanine nucleotide exchange factor 35) [SID160768206], the values are total luciferase, z-score -0.665; inactive.
Knock-down of ARHGEF35 (Rho guanine nucleotide exchange factor 35) [SID160768207] came out at: total luciferase, z-score 1.23; inactive.
Silencing of DENND4A (DENN domain containing 4A) [SID160727817] came out at: total luciferase, z-score -1.01; inactive.
Silencing of DENND4A (DENN domain containing 4A) [SID160727826] resulted in: total luciferase, z-score 0.181; inactive.
Knock-down of DENND4A (DENN domain containing 4A) [SID160727836] came out at: total luciferase, z-score 1.02; inactive.
For KDM3A (lysine demethylase 3A) [SID160731534], the values are total luciferase, z-score 0.698; inactive.
Against KDM3A (lysine demethylase 3A) [SID160744442] the deposit lists total luciferase, z-score 0.00946; inactive.
For KDM3A (lysine demethylase 3A) [SID160744443], the values are total luciferase, z-score 0.0168; inactive.
After knock-down of STAG3L4 (STAG3 cohesin complex component like 4 (pseudogene)) [SID160748151], the record shows total luciferase, z-score -0.954; inactive.
For STAG3L4 (STAG3 cohesin complex component like 4 (pseudogene)) [SID160748152], the values are total luciferase, z-score 0.21; inactive.
Depletion of STAG3L4 (STAG3 cohesin complex component like 4 (pseudogene)) [SID160748153] came out at: total luciferase, z-score -0.383; inactive.
Silencing of EMC9 (ER membrane protein complex subunit 9) [SID160739859] resulted in: total luciferase, z-score 1.17; inactive.
For EMC9 (ER membrane protein complex subunit 9) [SID160739860] the deposit lists total luciferase, z-score -0.585; inactive.
With knock-down of EMC9 (ER membrane protein complex subunit 9) [SID160739861], the screen gave total luciferase, z-score 0.609; inactive.
For ARL6IP1P2 (ARF like GTPase 6 interacting protein 1 pseudogene 2) [SID160725933], the values are total luciferase, z-score -0.781; inactive.
After knock-down of ARL6IP1P2 (ARF like GTPase 6 interacting protein 1 pseudogene 2) [SID160725934], the record shows total luciferase, z-score 0.31; inactive.
For ARL6IP1P2 (ARF like GTPase 6 interacting protein 1 pseudogene 2) [SID160725935], the values are total luciferase, z-score 1.1; inactive.

Sorted by “total luciferase, z-score” (high to low): some entries from above
EMC9 (ER membrane protein complex subunit 9) [SID160739859] → total luciferase, z-score = 1.17; call = inactive
EMC9 (ER membrane protein complex subunit 9) [SID160739860] → total luciferase, z-score = -0.585; call = inactive

Next reagents follow:
For TKFC (triokinase and FMN cyclase) [SID160737437] the deposit lists total luciferase, z-score -0.659; inactive.
For TKFC (triokinase and FMN cyclase) [SID160737439] the deposit lists total luciferase, z-score -0.373; inactive.
TKFC (triokinase and FMN cyclase) [SID160737440] gave total luciferase, z-score 1; inactive.
Against RNF20 (ring finger protein 20) [SID160744972] the deposit lists total luciferase, z-score -1.27; inactive.
For RNF20 (ring finger protein 20) [SID160744973], the values are total luciferase, z-score -2.36; inactive.
RNF20 (ring finger protein 20) [SID160744974] showed total luciferase, z-score -1.4; inactive.
Knock-down of ZNF222 (zinc finger protein 222) [SID160719133] gave: total luciferase, z-score 1.23; inactive.
Knock-down of ZNF222 (zinc finger protein 222) [SID160719134] came out at: total luciferase, z-score -0.418; inactive.
ZNF222 (zinc finger protein 222) [SID160719135] scored total luciferase, z-score 0.58; inactive.
POMC (proopiomelanocortin) [SID160714649] gave total luciferase, z-score -0.856; inactive.
Knock-down of POMC (proopiomelanocortin) [SID160723996] came out at: total luciferase, z-score -0.636; inactive.
POMC (proopiomelanocortin) [SID160723997] gave total luciferase, z-score -1.52; inactive.
Knock-down of EIF3L (eukaryotic translation initiation factor 3 subunit L) [SID160740736] came out at: total luciferase, z-score 1.38; inactive.
Against EIF3L (eukaryotic translation initiation factor 3 subunit L) [SID160740737], the entry reads total luciferase, z-score -1.81; inactive.
After knock-down of EIF3L (eukaryotic translation initiation factor 3 subunit L) [SID160740738], the record shows total luciferase, z-score -0.0564; inactive.
